According to article PMC8837547:
No constants are given. Whether binding was seen depends on the method and setting. In cells and extracts the contact can be indirect. Some binding calls cover weakened binding; strength is not graded here.

The chains behind the UniProt entries cited, without tags or fusion partners. Residues count along the entry.
UniProt Q5TEJ8: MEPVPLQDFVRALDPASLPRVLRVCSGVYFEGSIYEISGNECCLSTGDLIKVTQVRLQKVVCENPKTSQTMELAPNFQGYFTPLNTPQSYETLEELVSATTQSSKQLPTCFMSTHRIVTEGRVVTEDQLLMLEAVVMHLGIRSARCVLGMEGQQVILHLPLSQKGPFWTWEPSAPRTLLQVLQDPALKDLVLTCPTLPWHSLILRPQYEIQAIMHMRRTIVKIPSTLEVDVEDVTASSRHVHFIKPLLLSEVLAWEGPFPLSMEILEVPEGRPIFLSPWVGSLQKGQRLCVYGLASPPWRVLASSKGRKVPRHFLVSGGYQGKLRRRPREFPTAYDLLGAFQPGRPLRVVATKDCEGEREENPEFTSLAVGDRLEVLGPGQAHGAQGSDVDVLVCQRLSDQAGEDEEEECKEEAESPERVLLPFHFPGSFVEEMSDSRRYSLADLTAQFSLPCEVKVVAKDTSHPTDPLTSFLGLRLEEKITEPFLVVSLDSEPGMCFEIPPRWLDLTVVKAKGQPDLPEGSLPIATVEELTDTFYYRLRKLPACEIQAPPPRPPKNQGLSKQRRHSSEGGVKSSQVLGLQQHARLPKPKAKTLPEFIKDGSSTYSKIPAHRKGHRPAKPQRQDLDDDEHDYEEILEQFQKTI
UniProt P08581, residues 25-1390: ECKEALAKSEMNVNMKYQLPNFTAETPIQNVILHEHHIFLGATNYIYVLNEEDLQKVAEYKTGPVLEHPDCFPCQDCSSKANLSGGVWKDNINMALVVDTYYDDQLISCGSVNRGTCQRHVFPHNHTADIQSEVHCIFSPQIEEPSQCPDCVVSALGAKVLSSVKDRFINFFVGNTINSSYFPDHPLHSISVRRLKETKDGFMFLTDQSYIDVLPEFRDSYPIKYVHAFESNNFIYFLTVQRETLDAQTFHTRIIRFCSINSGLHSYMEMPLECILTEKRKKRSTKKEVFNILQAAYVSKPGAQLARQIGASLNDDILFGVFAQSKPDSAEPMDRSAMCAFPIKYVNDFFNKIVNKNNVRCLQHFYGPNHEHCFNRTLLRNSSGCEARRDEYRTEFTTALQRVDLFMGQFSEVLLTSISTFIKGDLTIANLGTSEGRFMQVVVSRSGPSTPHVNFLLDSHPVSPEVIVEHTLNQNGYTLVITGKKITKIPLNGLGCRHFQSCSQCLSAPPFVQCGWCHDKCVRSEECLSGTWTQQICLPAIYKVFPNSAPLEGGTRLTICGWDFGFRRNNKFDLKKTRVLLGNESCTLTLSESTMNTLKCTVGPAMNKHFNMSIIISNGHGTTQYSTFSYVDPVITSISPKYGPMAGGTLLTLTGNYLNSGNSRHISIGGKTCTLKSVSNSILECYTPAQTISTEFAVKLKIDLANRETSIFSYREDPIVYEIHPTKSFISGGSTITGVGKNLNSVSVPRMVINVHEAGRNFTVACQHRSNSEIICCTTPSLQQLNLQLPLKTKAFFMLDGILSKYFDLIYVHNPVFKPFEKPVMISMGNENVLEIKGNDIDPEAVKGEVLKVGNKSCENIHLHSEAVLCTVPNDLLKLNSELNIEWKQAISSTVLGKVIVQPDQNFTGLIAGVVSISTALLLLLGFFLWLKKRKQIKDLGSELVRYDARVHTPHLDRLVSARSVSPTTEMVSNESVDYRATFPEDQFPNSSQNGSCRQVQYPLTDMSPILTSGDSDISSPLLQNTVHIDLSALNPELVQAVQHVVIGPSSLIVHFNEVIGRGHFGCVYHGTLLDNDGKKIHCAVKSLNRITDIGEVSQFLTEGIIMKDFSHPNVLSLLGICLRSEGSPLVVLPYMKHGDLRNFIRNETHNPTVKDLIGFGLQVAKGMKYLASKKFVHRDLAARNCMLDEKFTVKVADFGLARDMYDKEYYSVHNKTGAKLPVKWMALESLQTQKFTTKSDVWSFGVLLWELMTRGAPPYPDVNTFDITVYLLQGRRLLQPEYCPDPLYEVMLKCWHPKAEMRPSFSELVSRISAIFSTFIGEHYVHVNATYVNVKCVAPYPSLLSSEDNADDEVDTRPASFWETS

Tests used:
[1] = target: T1, protein-tyrosine phosphatases 1B (PTP1B) (human (endogenous in MDA-MB-231, Hs578T and other TNBC lines)) (UniProt P18031); assay: co-IP; IP with a PTP1B antibody or a p-MET antibody from TNBC cell lysates (MDA-MB-231, Hs578T, MDA-MB-468, BT549), IgG as negative control; cells with THEMIS2 overexpression or THEMIS2 siRNA, with or without HGF (30 ng) for 30 min
T1 sequence: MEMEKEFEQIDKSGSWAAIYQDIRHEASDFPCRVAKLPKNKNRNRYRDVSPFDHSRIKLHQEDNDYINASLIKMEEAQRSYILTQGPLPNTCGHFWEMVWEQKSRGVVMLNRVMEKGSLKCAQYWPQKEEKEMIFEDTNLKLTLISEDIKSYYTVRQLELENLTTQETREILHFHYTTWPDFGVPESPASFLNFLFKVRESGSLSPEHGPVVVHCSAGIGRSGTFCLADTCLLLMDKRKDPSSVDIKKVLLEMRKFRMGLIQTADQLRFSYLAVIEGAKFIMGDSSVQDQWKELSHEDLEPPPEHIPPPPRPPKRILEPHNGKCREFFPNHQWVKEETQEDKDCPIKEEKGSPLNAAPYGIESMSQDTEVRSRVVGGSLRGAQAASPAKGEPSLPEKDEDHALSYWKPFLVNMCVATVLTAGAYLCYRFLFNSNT

[2] = target: Thymocyte expressed molecule involved in selection 2 (THEMIS2) (human (endogenous in MDA-MB-231-IV2, MDA-MB-231, Hs578T)) (UniProt Q5TEJ8); assay: co-IP; reciprocal IP of endogenous THEMIS2 and MET from MDA-MB-231-IV2 cell lysates, IgG as negative control; also sphere cells against parental cells in three TNBC lines
[3] = target: T1, protein-tyrosine phosphatases 1B (PTP1B) (human (endogenous in MDA-MB-231, Hs578T and other TNBC lines)); assay: proximity ligation; Duolink PLA with p-MET or MET and PTP1B antibodies in Hs578T and MDA-MB-231 cells; THEMIS2 siRNA or overexpression, with or without 30 ng/mL HGF for 30 min; p-MET antibody alone as negative control
[4] = target: MET (human (endogenous in MDA-MB-231, Hs578T and other TNBC lines)) (UniProt P08581); assay: proximity ligation; Duolink PLA with THEMIS2 and MET antibodies in MDA-MB-231 cells; also Hs578T sphere cells against parental cells
[5] = target: MET (human (endogenous in MDA-MB-231, Hs578T and other TNBC lines)) (UniProt P08581); assay: co-IP; reciprocal IP of endogenous THEMIS2 and MET from MDA-MB-231-IV2 cell lysates, IgG as negative control; also sphere cells against parental cells in three TNBC lines

binding [1] | binding [2] | binding [3] | binding [4] | binding [5] | Substance
binds | binds | binds |  |  | MET (from UniProt P08581 25-1390) (receptor)
 |  |  | binds | binds | Thymocyte expressed molecule involved in selection 2 (THEMIS2) (from UniProt Q5TEJ8 1-643)
